Our source for the IC50 values is patent publication US10414763B2 (CANCER RESEARCH TECHNOLOGY LIMITED, priority 2014, dated 2019).

Sequences of proteins named here, by UniProt entry; tags and fusion partners are left off.
UniProt P41743, whole entry: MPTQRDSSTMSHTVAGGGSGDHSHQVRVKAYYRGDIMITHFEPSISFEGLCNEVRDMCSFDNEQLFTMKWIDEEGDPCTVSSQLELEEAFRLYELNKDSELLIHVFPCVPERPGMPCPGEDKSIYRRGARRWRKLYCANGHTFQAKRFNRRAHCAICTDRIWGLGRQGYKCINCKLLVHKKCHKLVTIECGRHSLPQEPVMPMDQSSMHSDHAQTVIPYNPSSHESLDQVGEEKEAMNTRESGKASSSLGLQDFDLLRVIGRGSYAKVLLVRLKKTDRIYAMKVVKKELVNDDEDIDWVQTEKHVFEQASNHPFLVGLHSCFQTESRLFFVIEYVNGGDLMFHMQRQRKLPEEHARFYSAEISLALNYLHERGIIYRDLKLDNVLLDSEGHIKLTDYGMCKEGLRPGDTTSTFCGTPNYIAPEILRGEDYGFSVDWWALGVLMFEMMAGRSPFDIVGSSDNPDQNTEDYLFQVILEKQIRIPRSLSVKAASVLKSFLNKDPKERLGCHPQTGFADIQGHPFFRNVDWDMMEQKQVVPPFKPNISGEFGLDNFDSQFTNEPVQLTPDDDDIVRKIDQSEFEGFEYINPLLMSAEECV

The target in this test is full-length human PKCι (Homo sapiens, UniProt P41743). Kind of test: PKCι IC50 IMAP fluorescence polarisation assay, full-length enzyme, 150 μM ATP. Particulars: read-out: IC50 in IMAP assay against full length PKCi at 150 μM ATP. An excerpt:
Assays are based on the ability of PKCι to phosphorylate a commercially available peptide substrate in vitro. The peptide substrate is FAM-PKCε pseudopeptide derived peptide, and comprises the amino acid sequence 5FAM-ERMRPRKRQGSVRRRV-NH2. Recombinant, full-length human PKCι expressed in Sf21 insect cells is also commercially available. Recombinant, kinase-domain human PKCι is expressed and purified in-house.
The procedure below explains how dose response curves for inhibitors of PKCι are obtained. The screen described is for a 384 well format but the assay can be adapted to 1536 or other formats as required.
Compounds to be tested are dissolved in 100% DMSO. […]
On the day of the screen PKCι/substrate working solution, and ATP working solution, are prepared in buffer containing 20 mM tris-HCl pH7.5, 10 mM MgCl2, 0.01% Triton X100, 250 μM EGTA and 1 mM DTT. […] IMAP development reagent consists of 0.25% (v/v) IMAP progressive binding reagent, 17% (v/v) IMAP progressive binding buffer A and 3% (v/v) IMAP progressive binding buffer B. The plates are then incubated for 2 hours at room temperature before being read using an appropriate plate reader, for example a Molecular Devices HT Analyst or a BMG Pherastar. Plates are read using a fluorescence polarisation protocol with excitation at 485 nm and emission at 530 nm, and dichroic mirror at 505 nm. […]

Molecules are shown by their SMILES. The structures given here were assigned with low confidence; some may be wrong.

Turning to `CN(c1nc(-c2ccnc(Nc3nc(F)ccc3F)c2)nc2cncc(C3CCC3)c12)C1CCNCC1(C)C` (centres unmarked), the IC50 was less than 100 nM.

On to `CN(c1nc(-c2ccnc(Nc3nc(F)ccc3F)c2)nc2cncc(C3CC3)c12)C1CCNCC1(C)C` (centres unmarked), for which the IC50 is less than 100 nM.
